From the supplement of paper PMC11732987, “Enantioselective OTUD7B fragment discovery through chemoproteomics screening and high-throughput optimisation” (Communications Chemistry, 2025)
The list shows a part of the results. The data scatter; read single values as rough.

The chains behind the UniProt entries cited, without tags or fusion partners. Where a name states a change or a piece, a line headed by the entry shows the natural chain unless it says otherwise. Residues count along the entry.
UniProt Q8WTS1, 298-318: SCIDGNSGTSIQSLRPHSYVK
UniProt Q9NUQ8: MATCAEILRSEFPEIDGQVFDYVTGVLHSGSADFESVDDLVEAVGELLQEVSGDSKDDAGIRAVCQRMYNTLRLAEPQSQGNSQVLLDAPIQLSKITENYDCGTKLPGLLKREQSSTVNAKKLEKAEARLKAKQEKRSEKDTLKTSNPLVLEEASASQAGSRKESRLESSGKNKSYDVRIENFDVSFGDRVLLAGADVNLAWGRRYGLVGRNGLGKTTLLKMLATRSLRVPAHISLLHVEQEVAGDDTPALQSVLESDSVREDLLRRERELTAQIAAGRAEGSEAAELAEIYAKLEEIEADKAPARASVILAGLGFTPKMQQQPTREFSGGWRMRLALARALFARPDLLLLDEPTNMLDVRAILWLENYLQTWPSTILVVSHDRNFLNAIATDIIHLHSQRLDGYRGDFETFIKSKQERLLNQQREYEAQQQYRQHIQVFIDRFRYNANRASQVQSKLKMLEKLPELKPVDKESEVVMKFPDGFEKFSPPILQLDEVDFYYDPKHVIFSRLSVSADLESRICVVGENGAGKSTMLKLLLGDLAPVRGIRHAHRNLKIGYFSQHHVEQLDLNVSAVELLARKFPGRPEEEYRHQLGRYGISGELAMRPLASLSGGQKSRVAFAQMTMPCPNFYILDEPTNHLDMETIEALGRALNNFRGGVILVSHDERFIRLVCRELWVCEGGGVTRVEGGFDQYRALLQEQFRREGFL
UniProt Q8IZP0: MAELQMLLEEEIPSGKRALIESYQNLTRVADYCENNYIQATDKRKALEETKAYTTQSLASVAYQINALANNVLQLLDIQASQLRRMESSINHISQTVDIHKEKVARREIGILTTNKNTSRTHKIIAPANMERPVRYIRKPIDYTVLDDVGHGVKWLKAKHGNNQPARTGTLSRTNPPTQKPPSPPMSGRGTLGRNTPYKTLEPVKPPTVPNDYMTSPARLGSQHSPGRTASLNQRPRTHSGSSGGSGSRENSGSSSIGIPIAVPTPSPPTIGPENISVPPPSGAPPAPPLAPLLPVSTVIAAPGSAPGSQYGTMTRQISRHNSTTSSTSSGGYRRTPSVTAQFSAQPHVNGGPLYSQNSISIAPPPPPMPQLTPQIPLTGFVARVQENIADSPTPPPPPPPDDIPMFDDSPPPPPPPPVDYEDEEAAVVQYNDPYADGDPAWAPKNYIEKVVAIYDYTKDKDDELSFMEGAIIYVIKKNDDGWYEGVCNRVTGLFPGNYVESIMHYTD
UniProt P08183: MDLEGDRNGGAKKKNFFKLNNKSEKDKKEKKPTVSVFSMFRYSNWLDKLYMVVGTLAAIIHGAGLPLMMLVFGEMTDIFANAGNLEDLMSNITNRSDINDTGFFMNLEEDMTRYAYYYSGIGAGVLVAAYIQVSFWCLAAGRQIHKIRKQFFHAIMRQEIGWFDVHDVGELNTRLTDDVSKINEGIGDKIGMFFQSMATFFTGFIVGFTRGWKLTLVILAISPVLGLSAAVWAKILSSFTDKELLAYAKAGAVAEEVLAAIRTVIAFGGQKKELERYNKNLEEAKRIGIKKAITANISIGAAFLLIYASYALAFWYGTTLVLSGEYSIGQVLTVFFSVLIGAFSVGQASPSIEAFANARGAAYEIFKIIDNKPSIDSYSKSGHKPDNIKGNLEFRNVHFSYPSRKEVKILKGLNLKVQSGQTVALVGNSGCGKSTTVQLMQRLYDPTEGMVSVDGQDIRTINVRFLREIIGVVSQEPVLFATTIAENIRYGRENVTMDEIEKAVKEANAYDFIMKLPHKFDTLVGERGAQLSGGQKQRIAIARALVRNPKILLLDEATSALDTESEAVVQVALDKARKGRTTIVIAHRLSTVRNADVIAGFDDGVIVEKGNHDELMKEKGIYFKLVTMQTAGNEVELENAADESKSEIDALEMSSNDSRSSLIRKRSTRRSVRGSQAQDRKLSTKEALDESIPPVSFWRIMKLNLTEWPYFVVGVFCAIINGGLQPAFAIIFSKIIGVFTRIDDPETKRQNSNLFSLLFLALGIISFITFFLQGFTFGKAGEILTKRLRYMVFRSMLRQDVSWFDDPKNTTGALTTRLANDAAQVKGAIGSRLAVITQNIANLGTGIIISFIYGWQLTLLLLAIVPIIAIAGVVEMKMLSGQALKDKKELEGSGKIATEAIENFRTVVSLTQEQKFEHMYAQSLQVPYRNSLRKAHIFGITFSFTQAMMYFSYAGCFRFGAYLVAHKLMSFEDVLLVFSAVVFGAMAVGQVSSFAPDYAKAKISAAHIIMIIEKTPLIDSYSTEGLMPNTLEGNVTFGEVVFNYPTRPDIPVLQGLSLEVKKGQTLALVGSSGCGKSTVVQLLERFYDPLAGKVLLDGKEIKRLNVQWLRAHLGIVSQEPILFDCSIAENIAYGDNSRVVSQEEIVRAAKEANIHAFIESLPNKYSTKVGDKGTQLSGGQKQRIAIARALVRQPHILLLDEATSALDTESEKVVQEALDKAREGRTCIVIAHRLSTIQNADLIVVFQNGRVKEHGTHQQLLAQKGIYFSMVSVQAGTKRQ
UniProt Q5JTZ9, 902-922: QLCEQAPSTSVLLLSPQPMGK

Compound: ClCC(=O)N[C@@H]1CCCc2ccccc12
Experiment: log2 mean competition ratio of IA-DTB cysteine labelling (DMSO/compound) (log2 ratio); higher = stronger cysteine engagement by compound
Conditions: 200 µM; treatment time: 4 h; cell line lysate: HEK293T
Protocol: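 IA-DTB competitive cysteine chemoproteomics in HEK293T RIPA lysate. Lysates were treated with compound 29 or 30 at 50 or 200 µM for 4 h, then IA-DTB (500 µM, 1 h), trypsin-digested, NeutrAvidin-enriched and analysed by diaPASEF. Competition ratio = intensity DMSO / intensity compound (n=4 treated, n=64 DMSO); binding: mean log2 CR ≥ 1 and p ≤ 0.05 plus QC filters. Target is the cysteine site.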

Row | Target | log2 mean competition ratio
1 | ABHD5 C299 (UniProt Q8WTS1) | 0.00924
2 | ABCF3 C4 (UniProt Q9NUQ8) | -0.278
3 | ABI1 C33 (UniProt Q8IZP0) | -0.0931
4 | ABCB1 C431 (UniProt P08183) | -0.354
5 | ACADSB C261 (UniProt P45954) | 0.296
6 | AARS2 C904 (UniProt Q5JTZ9) | -0.299
